Values from PubChem BioAssay AID720505 (Drosophila RNAi Screening Center, 2013).
In all, the deposit lists about 20,000 reagents; this is a random part of those with a known target gene and a result. Over the whole deposit, about 2,100 (10%) are marked active. 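Raw plate signals without normalisation; calls rest on control-based scores that were not deposited; replicate 2 separates called from uncalled poorly.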 A number with no mark means an inactive call. The numbers tell different reagents against one gene apart. Not stated in the record: the amount of reagent, the time to read-out.

- Screen: 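Knock-downs that reduce calcium influx once internal stores are emptied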 (primary screen)
- Cell system: Drosophila S2R+ cells
- Knock-down reagent: long dsRNA against Drosophila genes
- Conditions: thapsigargin (2 µM) in calcium-free buffer to empty internal stores, then 2 mM calcium added back
- Measured: 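Fluo-4 signal in 384-well plates read on a FLIPR after thapsigargin (2 µM, calcium-free) store depletion and 2 mM calcium add-back; unnormalised mean endpoint per well; screen run twice, selected wells retested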
- Reading the numbers: calcium signal: higher = more calcium entry after store depletion
- Hit rule: 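Knock-downs counted as hits when calcium entry dropped relative to STIM1 positive and Rho1 negative controls present on each plate; roughly 1500 genes called, with reductions of differing size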
- Calls: active = called as lowering calcium entry; inactive = not called

The opening 2 records as a preview:
{"gene": "wge", "dsRNA no.": 1, "calcium signal, replicate 1": 203, "calcium signal, replicate 2": 276}
{"gene": "wge", "dsRNA no.": 2, "calcium signal, replicate 1": 136, "calcium signal, replicate 2": 110}

Results, from the first entry:
{"gene": "wge", "dsRNA no.": 1, "calcium signal, replicate 1": 203, "calcium signal, replicate 2": 276}
{"gene": "wge", "dsRNA no.": 2, "calcium signal, replicate 1": 136, "calcium signal, replicate 2": 110}
{"gene": "Polr3E", "dsRNA no.": 1, "calcium signal, replicate 1": 79.8, "calcium signal, replicate 2": 106}
{"gene": "spir", "dsRNA no.": 1, "calcium signal, replicate 1": 93.6, "calcium signal, replicate 2": 112}
{"gene": "CG7130", "dsRNA no.": 1, "calcium signal, replicate 1": 98.9, "calcium signal, replicate 2": 145}
{"gene": "Tsp2A", "dsRNA no.": 1, "calcium signal, replicate 1": 78.5, "calcium signal, replicate 2": 100}
{"gene": "intr", "dsRNA no.": 1, "calcium signal, replicate 1": 114, "calcium signal, replicate 2": 136}
{"gene": "CG2816", "dsRNA no.": 1, "calcium signal, replicate 1": 155, "calcium signal, replicate 2": 77.4}
{"gene": "JMJD5", "dsRNA no.": 1, "calcium signal, replicate 1": 86.4, "calcium signal, replicate 2": 80}
{"gene": "Cdc6", "dsRNA no.": 1, "calcium signal, replicate 1": 85.8, "calcium signal, replicate 2": 95.8}
{"gene": "CG11145", "dsRNA no.": 1, "calcium signal, replicate 1": 127, "calcium signal, replicate 2": 158}
{"gene": "Gbp2", "dsRNA no.": 1, "calcium signal, replicate 1": 114, "calcium signal, replicate 2": 130}
{"gene": "VhaM9.7-d", "dsRNA no.": 1, "calcium signal, replicate 1": 121, "calcium signal, replicate 2": 153}
{"gene": "CG14892", "dsRNA no.": 1, "calcium signal, replicate 1": 87, "calcium signal, replicate 2": 96.8}
{"gene": "CG31245", "dsRNA no.": 1, "calcium signal, replicate 1": 233, "calcium signal, replicate 2": 171}
{"gene": "mask", "dsRNA no.": 1, "calcium signal, replicate 1": "167 (active)", "calcium signal, replicate 2": 199}
{"gene": "mask", "dsRNA no.": 2, "calcium signal, replicate 1": 146, "calcium signal, replicate 2": 153}
{"gene": "mask", "dsRNA no.": 3, "calcium signal, replicate 1": 143, "calcium signal, replicate 2": 262}
{"gene": "ptc", "dsRNA no.": 1, "calcium signal, replicate 1": "48.8 (active)", "calcium signal, replicate 2": 86.9}
{"gene": "ptc", "dsRNA no.": 2, "calcium signal, replicate 1": 129, "calcium signal, replicate 2": 201}
{"gene": "Lac", "dsRNA no.": 1, "calcium signal, replicate 1": 185, "calcium signal, replicate 2": 144}
{"gene": "ctp", "dsRNA no.": 1, "calcium signal, replicate 1": 108, "calcium signal, replicate 2": 73.6}
{"gene": "CG10209", "dsRNA no.": 1, "calcium signal, replicate 1": 184, "calcium signal, replicate 2": 136}
{"gene": "Taf12", "dsRNA no.": 1, "calcium signal, replicate 1": 140, "calcium signal, replicate 2": 112}
{"gene": "CG10031", "dsRNA no.": 1, "calcium signal, replicate 1": 168, "calcium signal, replicate 2": 121}
{"gene": "sPLA2", "dsRNA no.": 1, "calcium signal, replicate 1": 111, "calcium signal, replicate 2": 110}
{"gene": "Cnot4", "dsRNA no.": 1, "calcium signal, replicate 1": 201, "calcium signal, replicate 2": 181}
{"gene": "Cnot4", "dsRNA no.": 2, "calcium signal, replicate 1": 154, "calcium signal, replicate 2": 188}
